Assay results taken from article PMC9225343.
No constants are given. Whether binding was seen depends on the method and setting. Binding seen in cells or lysates may run through a third protein. Some entries that bind do so weakly or less than the wild type.

By UniProt entry, the sequences of proteins in these tests, tags left out.
UniProt P46937: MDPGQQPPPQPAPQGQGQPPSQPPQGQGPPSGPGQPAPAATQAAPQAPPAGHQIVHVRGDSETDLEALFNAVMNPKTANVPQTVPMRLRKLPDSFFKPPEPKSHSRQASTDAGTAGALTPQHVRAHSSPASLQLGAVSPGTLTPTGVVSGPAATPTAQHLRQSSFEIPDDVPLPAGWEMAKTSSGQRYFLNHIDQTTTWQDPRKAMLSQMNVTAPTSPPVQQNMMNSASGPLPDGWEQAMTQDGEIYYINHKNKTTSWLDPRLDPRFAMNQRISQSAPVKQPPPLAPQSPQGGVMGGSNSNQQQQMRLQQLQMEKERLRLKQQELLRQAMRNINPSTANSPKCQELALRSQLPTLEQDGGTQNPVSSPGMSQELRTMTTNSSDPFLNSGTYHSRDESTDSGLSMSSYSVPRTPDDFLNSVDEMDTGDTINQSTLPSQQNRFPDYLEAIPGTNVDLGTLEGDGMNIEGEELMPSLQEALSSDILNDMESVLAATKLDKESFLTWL

Molecular target: Yes-associated protein (human (endogenous in N/TERT)) (UniProt P46937)
Assay: co-IP; freshly confluent N/TERT cell lysates; IP with anti-p-YAP or anti-YAP antibody, blot for Dsg3; control beads alone; input 7~8%

B1: Desmoglein-3 (protein, UniProt P32926 50-999)
chain: EWVKFAKPCREGEDNSKRNPIAKITSDYQATQKITYRISGVGIDQPPFGIFVVDKNTGDINITAIVDREETPSFLITCRALNAQGLDVEKPLILTVKILDINDNPPVFSQQIFMGEIEENSASNSLVMILNATDADEPNHLNSKIAFKIVSQEPAGTPMFLLSRNTGEVRTLTNSLDREQASSYRLVVSGADKDGEGLSTQCECNIKVKDVNDNFPMFRDSQYSARIEENILSSELLRFQVTDLDEEYTDNWLAVYFFTSGNEGNWFEIQTDPRTNEGILKVVKALDYEQLQSVKLSIAVKNKAEFHQSVISRYRVQSTPVTIQVINVREGIAFRPASKTFTVQKGISSKKLVDYILGTYQAIDEDTNKAASNVKYVMGRNDGGYLMIDSKTAEIKFVKNMNRDSTFIVNKTITAEVLAIDEYTGKTSTGTVYVRVPDFNDNCPTAVLEKDAVCSSSPSVVVSARTLNNRYTGPYTFALEDQPVKLPAVWSITTLNATSALLRAQEQIPPGVYHISLVLTDSQNNRCEMPRSLTLEVCQCDNRGICGTSYPTTSPGTRYGRPHSGRLGPAAIGLLLLGLLLLLLAPLLLLTCDCGAGSTGGVTGGFIPVPDGSEGTIHQWGIEGAHPEDKEITNICVPPVTANGADFMESSEVCTNTYARGTAVEGTSGMEMTTKLGAATESGGAAGFATGTVSGAASGFGAATGVGICSSGQSGTMRTRHSTGGTNKDYADGAISMNFLDSYFSQKAFACAEEDDGQEANDCLLIYDNEGADATGSPVGSVGCCSFIADDLDDSFLDSLGPKFKKLAEISLGVDGEGKEVQPPSKDSGYGIESCGHPIEVQQTGFVKCQTLSGSQGASALSTSGSVQPAVSIPDPLQHGNYLVTETYSASGSLVQPSTAGFDPLLTQNVIVTERVICPISSVPGNLAGPTQLRGSHTMLCTEDPCSRLI
binding: binds
